This is one part of the list. Many values rest on one well or one pass, so single values are uncertain.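 Imaging used 1,536-well plates; nuclei positive for cleaved PARP by antibody were divided by total DNA-stained nuclei to yield the apoptosis fraction. Doses for screening kept most cells viable, and cell lines differ markedly in resting and induced cleaved-PARP levels.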

Among the test systems are MZ2-MEL; MeWo; RPMI7951; RVH-421; SkMel28; SkMel2; SkMel30; SkMel5; UACC257; UACC62; WM115; WM1716; WM1745; WM3526; WM3619; WM451Lu.
Holding throughout (experiment): cleaved PARP positive nuclei fraction relative to DMSO control; melanoma cells; higher = more apoptosis
What all share (conditions): library dose: low library concentration; 72 h

Turning to `Nc1ccn([C@@H]2O[C@H](CO)[C@@H](O)C2(F)F)c(=O)n1` [gemcitabine] + O=C(O)C(=O)Nc1sc2c(c1C(=O)O)CCNC2 [TCS401] (first compound 0.0004 µM, partner dose 1.66667 µM), the “cleaved PARP positive nuclei fraction” value worked out at 102% with MZ2-MEL; 141% in the experiment on MeWo; 71.7% with RPMI7951; 446% in the experiment on RVH-421; 84.1% with SkMel28; 94.7% in the experiment with SkMel2. The “cleaved PARP positive nuclei fraction” value with SkMel30 was 89.2%; with SkMel5, 152%; in the experiment on UACC257, 190%; in the experiment on UACC62 it was 122%; in the experiment with WM115, 75.1%; in the experiment with WM1716 it was 49.3%. Besides, the “cleaved PARP positive nuclei fraction” value with WM1745 was 123%; in the experiment on WM3526, 87.9%; with WM3619, 108%; with WM451Lu it was 32.9%.

Regarding `Nc1ccn([C@@H]2O[C@H](CO)[C@@H](O)C2(F)F)c(=O)n1` [gemcitabine] + COc1cc(N2CCC(N3CCN(C)CC3)CC2)ccc1Nc1ncc(Cl)c(Nc2ccccc2S(=O)(=O)C(C)C)n1 [NVP-TAE684] (first compound 0.0004 µM, partner dose 0.08 µM), the “cleaved PARP positive nuclei fraction” value with MZ2-MEL amounted to 118%; with MeWo, 149%; in the experiment with RPMI7951, 43.5%; with RVH-421 it was 85.2%; in the experiment with SkMel28 it was 45.3%; in the experiment on SkMel2, 40.3%. The “cleaved PARP positive nuclei fraction” value was found to be 103% in the experiment on SkMel30; 154% in the experiment on SkMel5; 129% in the experiment on UACC257; 165% in the experiment on UACC62; 176% in the experiment with WM115; 202% in the experiment with WM1716. Moreover, the “cleaved PARP positive nuclei fraction” value amounted to 147% with WM1745, 79.7% in the experiment on WM3526, 136% with WM3619 and 77.7% in the experiment with WM451Lu.

On to `Nc1nc(F)nc2c1ncn2[C@@H]1O[C@H](CO)[C@@H](O)[C@@H]1O` [fludarabine] + C[C@@H]1CCN(C(=O)CC#N)C[C@@H]1N(C)c1ncnc2[nH]ccc12 [CP690550] (first compound 0.2 µM, partner dose 1 µM), for which the “cleaved PARP positive nuclei fraction” value worked out at 126% in the experiment on MZ2-MEL; 664% in the experiment with MeWo; 66.7% in the experiment with RPMI7951; 97.2% in the experiment with RVH-421; 68% in the experiment on SkMel28; 783% in the experiment on SkMel2. The “cleaved PARP positive nuclei fraction” value in the experiment on SkMel30 was determined as 357%; with SkMel5, 659%; in the experiment with UACC257, 132%; in the experiment with UACC62, 91.7%; in the experiment with WM115 it was 103%; in the experiment with WM1716, 116%. Besides, the “cleaved PARP positive nuclei fraction” value amounted to 90.1% in the experiment with WM1745, 110% in the experiment on WM3526, 97.7% with WM3619 and 239% with WM451Lu.

As for `CNC(=O)c1cc(Oc2ccc(NC(=O)Nc3ccc(Cl)c(C(F)(F)F)c3)cc2)ccn1` [sorafenib] + COc1cc(N2CCC(N3CCN(C)CC3)CC2)ccc1Nc1ncc(Cl)c(Nc2ccccc2S(=O)(=O)C(C)C)n1 [NVP-TAE684] (first compound 0.4 µM, partner dose 0.08 µM), the “cleaved PARP positive nuclei fraction” value was determined as 27% in the experiment on MZ2-MEL; 146% in the experiment with MeWo; 24.8% in the experiment with RPMI7951; 85.6% in the experiment on RVH-421; 115% with SkMel28; 119% in the experiment with SkMel2. Also, the “cleaved PARP positive nuclei fraction” value with SkMel30 amounted to 80.4%; in the experiment with SkMel5 it was 245%; with UACC257, 33.7%; in the experiment on UACC62 it was 107%; with WM115 it was 63.4%; in the experiment with WM1716 it was 66.1%. Also, the “cleaved PARP positive nuclei fraction” value in the experiment on WM1745 came out at 98.3%; in the experiment with WM3526, 75.7%; with WM3619, 105%; with WM451Lu, 40.1%.

For the molecule `C=C(c1ccc(C(=O)O)cc1)c1cc2c(cc1C)C(C)(C)CCC2(C)C` [Bexarotene] + O=S(=O)(c1ccccc1)N(CC(F)(F)F)c1ccc(C(O)(C(F)(F)F)C(F)(F)F)cc1 [T0901317] (first compound 2 µM, partner dose 1.4 µM), the “cleaved PARP positive nuclei fraction” value in the experiment on MZ2-MEL is 91.6%; in the experiment with MeWo it was 56.9%; in the experiment with RPMI7951, 114%; in the experiment with RVH-421, 76.5%; in the experiment on SkMel28 it was 274%; in the experiment with SkMel2 it was 312%. For the same molecule, the “cleaved PARP positive nuclei fraction” value in the experiment with SkMel30 stood at 33.1%; with SkMel5, 77.9%; in the experiment with UACC257, 39.3%; in the experiment with UACC62, 60.8%; in the experiment with WM115 it was 52.7%; in the experiment with WM1716, 194%. Moreover, the “cleaved PARP positive nuclei fraction” value in the experiment on WM1745 is 128%; with WM3526, 175%; in the experiment on WM3619, 97.7%; with WM451Lu, 43%.

In the case of `Nc1ncn([C@H]2C[C@H](O)[C@@H](CO)O2)c(=O)n1` [decitabine] + COc1cc2ncnc(Nc3ccc(Oc4ccccc4)cc3)c2cc1OC [SrcI1] (first compound 0.1 µM, partner dose 2 µM), the “cleaved PARP positive nuclei fraction” value in the experiment with MZ2-MEL is 47.5%; in the experiment with MeWo, 74.7%; in the experiment on RPMI7951, 31%; with RVH-421, 117%; in the experiment with SkMel28 it was 132%; with SkMel2, 42.4%. The “cleaved PARP positive nuclei fraction” value in the experiment with SkMel30 came to 112%; in the experiment with SkMel5 it was 62.9%; in the experiment on UACC257, 217%; with UACC62, 153%; in the experiment on WM115 it was 86.2%; in the experiment with WM1716 it was 99.9%. The “cleaved PARP positive nuclei fraction” value in the experiment on WM1745 turned out to be 98.2%; in the experiment with WM3526 it was 35.4%; in the experiment with WM3619, 87.9%; in the experiment on WM451Lu, 182%.

In the case of `Nc1nc(F)nc2c1ncn2[C@@H]1O[C@H](CO)[C@@H](O)[C@@H]1O` [fludarabine] + CC(C)CCN1c2nc(Nc3cc(F)c(O)c(F)c3)ncc2N(C)C(=O)C1C [BID1870] (first compound 0.2 µM, partner dose 0.2 µM), the “cleaved PARP positive nuclei fraction” value in the experiment on MZ2-MEL was 37.4%; in the experiment on MeWo it was 473%; in the experiment with RPMI7951 it was 37%; in the experiment on RVH-421 it was 94.8%; with SkMel28, 215%; in the experiment with SkMel2, 1220%. The “cleaved PARP positive nuclei fraction” value with SkMel30 was 392%; in the experiment on SkMel5 it was 371%; in the experiment on UACC257 it was 105%; with UACC62, 126%; in the experiment on WM115 it was 155%; in the experiment on WM1716, 101%. Also, the “cleaved PARP positive nuclei fraction” value worked out at 106% in the experiment with WM1745, 380% in the experiment with WM3526, 93.6% with WM3619 and 440% in the experiment on WM451Lu.

For the molecule `CCCS(=O)(=O)Nc1ccc(F)c(C(=O)c2c[nH]c3ncc(Cl)cc23)c1F` + Cc1ccc(NC(=O)c2cccc(N(C)C)c2)cc1NC(=O)c1ccc(O)cc1 [ZM336372] (first compound 0.08 µM, partner dose 2 µM), the “cleaved PARP positive nuclei fraction” value in the experiment on MZ2-MEL was 94.8%; with MeWo, 194%; in the experiment on RPMI7951 it was 109%; with RVH-421, 126%; with SkMel28, 239%; with SkMel2 it was 122%. Besides, the “cleaved PARP positive nuclei fraction” value with SkMel30 came to 152%; with SkMel5 it was 43.5%; in the experiment on UACC257, 174%; in the experiment on UACC62, 322%; in the experiment with WM115 it was 68.6%; in the experiment on WM1716 it was 136%. Also, the “cleaved PARP positive nuclei fraction” value stood at 100% with WM1745, 324% with WM3526, 106% in the experiment with WM3619 and 69.8% in the experiment on WM451Lu.

(Values after the supplement of paper PMC4604168 (melanoma cell lines).)
